# The supplement of paper PMC8728848
# Some of the results follow.
# Tests used:
# Assay in all cases: glycan array binding signal (z-score within array); higher = stronger binding
# Details in all cases: glycan notation: IUPAC condensed, linker removed
# [1] = target: Fuc(a1-2)Gal(b1-4)GlcNAc(b1-3)Gal(b1-4)GlcNAc(b1-3)Gal(b1-4)GlcNAc
# In short: (§1)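 The binding signal is a Z-score computed within each array and averaged over linkers. Arrays of the same protein sequence at different concentrations or buffers were also averaged together. Data originate from 3228 arrays in the Consortium for Functional Glycomics database, kept only where the protein sequence was available.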
# [2] = target: Fuc(a1-2)Gal(b1-4)GlcNAc(b1-3)GalNAc
# In short: as §1
# [3] = target: Fuc(a1-2)Gal(b1-4)GlcNAc(b1-3)[Fuc(a1-2)Gal(b1-4)GlcNAc(b1-6)]GalNAc
# In short: as §1
# [4] = target: Fuc(a1-2)Gal(b1-4)GlcNAc(b1-6)GalNAc
# In short: as §1
# [5] = target: Fuc(a1-2)Gal(b1-4)GlcNAc6S
# In short: as §1
# [6] = target: Fuc(a1-2)Gal(b1-4)[Fuc(a1-3)]GlcNAc
# In short: as §1
# [7] = target: Fuc(a1-2)Gal(b1-4)[Fuc(a1-3)]GlcNAc(b1-2)Man(a1-3)[Fuc(a1-2)Gal(b1-4)[Fuc(a1-3)]GlcNAc(b1-2)Man(a1-6)]Man(b1-4)GlcNAc(b1-4)GlcNAc
# In short: as §1
# [8] = target: Fuc(a1-2)Gal(b1-4)[Fuc(a1-3)]GlcNAc(b1-2)Man(a1-6)[Fuc(a1-2)Gal(b1-4)[Fuc(a1-3)]GlcNAc(b1-2)Man(a1-3)]Man(b1-4)GlcNAc(b1-4)[Fuc(a1-6)]GlcNAc
# In short: as §1
# [9] = target: Fuc(a1-2)Gal(b1-4)[Fuc(a1-3)]GlcNAc(b1-2)[Fuc(a1-2)Gal(b1-4)[Fuc(a1-3)]GlcNAc(b1-4)]Man(a1-3)[Fuc(a1-2)Gal(b1-4)[Fuc(a1-3)]GlcNAc(b1-2)Man(a1-6)]Man(b1-4)GlcNAc(b1-4)GlcNAc
# In short: as §1
# [10] = target: Fuc(a1-2)Gal(b1-4)[Fuc(a1-3)]GlcNAc(b1-3)Gal(b1-4)[Fuc(a1-3)]GlcNAc
# In short: as §1
# [11] = target: Fuc(a1-2)Gal(b1-4)[Fuc(a1-3)]GlcNAc(b1-3)Gal(b1-4)[Fuc(a1-3)]GlcNAc(b1-3)Gal(b1-4)[Fuc(a1-3)]GlcNAc
# In short: as §1
# [12] = target: Fuc(a1-2)Gal(b1-4)[Fuc(a1-3)]GlcNAc(b1-3)GalNAc
# In short: as §1
# [13] = target: Fuc(a1-2)Gal(b1-4)[Fuc(a1-3)]GlcNAc(b1-3)[Neu5Ac(a2-6)Gal(b1-4)GlcNAc(b1-6)]Gal(b1-4)Glc
# In short: as §1
# [14] = target: Fuc(a1-2)Gal6S(b1-3)GlcNAc
# In short: as §1
# [15] = target: Fuc(a1-2)Gal6S(b1-3)GlcNAc6S
# In short: as §1
# [16] = target: Fuc(a1-2)Gal6S(b1-4)Glc
# In short: as §1
# [17] = target: Fuc(a1-2)Gal6S(b1-4)Glc6S
# In short: as §1
# [18] = target: Fuc(a1-2)Gal6S(b1-4)GlcNAc
# In short: as §1
# [19] = target: Fuc(a1-2)[Gal(a1-3)]Gal
# In short: as §1
# [20] = target: Fuc(a1-2)[Gal(a1-3)]Gal(b1-3)GalNAc
# In short: as §1
# [21] = target: Fuc(a1-2)[Gal(a1-3)]Gal(b1-3)GlcNAc
# In short: as §1
# [22] = target: Fuc(a1-2)[Gal(a1-3)]Gal(b1-3)GlcNAc(b1-2)Man(a1-3)[Fuc(a1-2)[Gal(a1-3)]Gal(b1-3)GlcNAc(b1-2)Man(a1-6)]Man(b1-4)GlcNAc(b1-4)GlcNAc
# In short: as §1
# [23] = target: Fuc(a1-2)[Gal(a1-3)]Gal(b1-3)GlcNAc(b1-2)Man(a1-3)[Fuc(a1-2)[Gal(a1-3)]Gal(b1-3)GlcNAc(b1-2)Man(a1-6)]Man(b1-4)GlcNAc(b1-4)[Fuc(a1-6)]GlcNAc
# In short: as §1
# [24] = target: Fuc(a1-2)[Gal(a1-3)]Gal(b1-3)GlcNAc(b1-3)GalNAc
# In short: as §1
# [25] = target: Fuc(a1-2)[Gal(a1-3)]Gal(b1-4)Glc
# In short: as §1
# [26] = target: Fuc(a1-2)[Gal(a1-3)]Gal(b1-4)GlcNAc
# In short: as §1
# [27] = target: Fuc(a1-2)[Gal(a1-3)]Gal(b1-4)GlcNAc(b1-2)Man(a1-3)[Fuc(a1-2)[Gal(a1-3)]Gal(b1-4)GlcNAc(b1-2)Man(a1-6)]Man(b1-4)GlcNAc(b1-4)GlcNAc
# In short: as §1
# [28] = target: Fuc(a1-2)[Gal(a1-3)]Gal(b1-4)GlcNAc(b1-2)Man(a1-3)[Fuc(a1-2)[Gal(a1-3)]Gal(b1-4)GlcNAc(b1-2)Man(a1-6)]Man(b1-4)GlcNAc(b1-4)[Fuc(a1-6)]GlcNAc
# In short: as §1
# [29] = target: Fuc(a1-2)[Gal(a1-3)]Gal(b1-4)GlcNAc(b1-3)GalNAc
# In short: as §1
# [30] = target: Fuc(a1-2)[Gal(a1-3)]Gal(b1-4)GlcNAc(b1-6)GalNAc
# In short: as §1
binder,measurement,setting,value
Intelectin-1a (Mus musculus) (protein) AEWSHPQFEKAEENLDTNRWGNSFFSSLPRSCKEIKQEHTKAQDGLYFLRTKNGVIYQTFCDMTTAGGGWTLVASVHENNMRGKCTVGDRWSSQQGNRADYPEGDGNWANYNTFGSAEAATSDDYKNPGYFDIQAENLGIWHVPNKSPLHNWRKSSLLRYRTFTGFLQHLGHNLFGLYKKYPVKYGEGKCWTDNGPALPVVYDFGDARKTASYYSPSGQREFTAGYVQFRVFNNERAASALCAGVRVTGCNTEHHCIGGGGFFPEGNPVQCGDFASFDWDGYGTHNGYSSSRKITEAAVLLFYR,glycan array binding signal (z-score),[1],0.884
same,glycan array binding signal (z-score),[2],0.697
same,glycan array binding signal (z-score),[3],-0.517
same,glycan array binding signal (z-score),[4],-0.016
same,glycan array binding signal (z-score),[5],-0.569
same,glycan array binding signal (z-score),[6],-0.845
same,glycan array binding signal (z-score),[7],2.41
same,glycan array binding signal (z-score),[8],0.566
same,glycan array binding signal (z-score),[9],-0.244
same,glycan array binding signal (z-score),[10],-1.05
same,glycan array binding signal (z-score),[11],-0.438
same,glycan array binding signal (z-score),[12],2.14
same,glycan array binding signal (z-score),[13],-0.366
same,glycan array binding signal (z-score),[14],0.386
same,glycan array binding signal (z-score),[15],0.764
same,glycan array binding signal (z-score),[16],1.88
same,glycan array binding signal (z-score),[17],0.863
same,glycan array binding signal (z-score),[18],0.39
same,glycan array binding signal (z-score),[19],0.796
same,glycan array binding signal (z-score),[20],-0.257
same,glycan array binding signal (z-score),[21],2.13
same,glycan array binding signal (z-score),[22],0.954
same,glycan array binding signal (z-score),[23],3.73
same,glycan array binding signal (z-score),[24],-0.672
same,glycan array binding signal (z-score),[25],0.504
same,glycan array binding signal (z-score),[26],-0.525
same,glycan array binding signal (z-score),[27],-0.423
same,glycan array binding signal (z-score),[28],0.287
same,glycan array binding signal (z-score),[29],-0.333
same,glycan array binding signal (z-score),[30],0.399
